No constants are given. Whether binding was seen depends on the method and setting. Binding calls can cover weak binding; strength is not graded here.
Target: T1, TRAF6 (full-length), bait of the in vitro virus selection (UniProt P70196)
T1 sequence: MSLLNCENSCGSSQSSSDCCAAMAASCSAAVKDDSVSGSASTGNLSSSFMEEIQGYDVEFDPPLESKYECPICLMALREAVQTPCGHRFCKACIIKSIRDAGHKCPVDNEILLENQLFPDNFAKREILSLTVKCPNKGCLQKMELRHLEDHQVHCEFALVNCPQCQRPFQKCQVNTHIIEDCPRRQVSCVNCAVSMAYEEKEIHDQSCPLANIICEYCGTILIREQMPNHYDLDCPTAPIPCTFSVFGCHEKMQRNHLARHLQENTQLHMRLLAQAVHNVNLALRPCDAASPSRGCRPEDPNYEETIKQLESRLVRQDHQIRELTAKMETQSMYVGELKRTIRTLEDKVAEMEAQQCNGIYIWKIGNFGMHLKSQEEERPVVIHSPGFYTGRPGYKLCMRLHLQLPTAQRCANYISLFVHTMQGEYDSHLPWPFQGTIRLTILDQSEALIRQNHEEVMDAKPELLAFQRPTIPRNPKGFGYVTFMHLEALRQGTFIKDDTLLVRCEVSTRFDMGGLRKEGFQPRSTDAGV
Test: in vitro virus (IVV) selection; mRNA templates of bait (full-length TRAF6) and prey (mouse fetal thymus cDNA library) cotranslated in wheat germ extract for 1 h at 26°C; four rounds of selection; mock selection without bait as negative control

Row | Substance | binding
1 | RNA binding motif protein 39, peptide selected by IVV (mouse) (domain or fragment) | binds
2 | WAS protein homology region 2 domain containing 1, peptide selected by IVV (mouse) (domain or fragment) | binds
